The labels stand for the following.
B1: Tyrosyl-DNA Phosphodiesterase 2 (TDP2) (enzyme, UniProt O95551 1-362)
chain: MELGSCLEGGREAAEEEGEPEVKKRRLLCVEFASVASCDAAVAQCFLAENDWEMERALNSYFEPPVEESALERRPETISEPKTYVDLTNEETTDSTTSKISPSEDTQQENGSMFSLITWNIDGLDLNNLSERARGVCSYLALYSPDVIFLQEVIPPYYSYLKKRSSNYEIITGHEEGYFTAIMLKKSRVKLKSQEIIPFPSTKMMRNLLCVHVNVSGNELCLMTSHLESTRGHAAERMNQLKMVLKKMQEAPESATVIFAGDTNLRDREVTRCGGLPNNIVDVWEFLGKPKHCQYTWDTQMNSNLGITAACKLRFDRIFFRAAAEEGHIIPRSLDLLGLEKLDCGRFPSDHWGLLCNLDIIL
B2: Zinc Finger Protein 451 (ZNF451) (enzyme, UniProt Q9Y4E5 1-1061)
chain: MGDPGSEIIESVPPAGPEASESTTDENEDDIQFVSEGPLRPVLEYIDLVSSDDEEPSTSYTDENIKRKDHIDYQKDKVALTLARLARHVEVEKQQKEEKNRAFREKIDFQHAHGLQELEFIRGHSDTEAARLCVDQWLKMPGLKTGTINCGTKSSFRRGGHTWVSGKPILCPIMHCNKEFDNGHLLLGHLKRFDHSPCDPTITLHGPFFSSFACVVCYKKFVTQQQYRDHLFDKEATDDGHNNNLLPQIIQCFACPNCFLLFSRKEECSKHMSGKNHFHQSFKLGDNKGIAHPISFPSFAKKLLISLCKDVPFQVKCVACHKTLRSHMELTAHFRVHCRNAGPVAVAEKSITQVAEKFILRGYCPDCNQVFVDETSTQNHKQNSGHKVRVINSVEESVLLYCHSSEGNKDPSSDLHLLLDQSKFSSLKRTMSIKESSSLECIAIPKKKMNLKDKSHEGVACVQKEKSVVKTWFCECNQRFPSEDAVEKHVFSANTMGYKCVVCGKVCDDSGVIRLHMSRIHGGAHLNNFLFWCRTCKKELTRKDTIMAHVTEFHNGHRYFYEMDEVEGETLPSSSTTLDNLTANKPSSAITVIDHSPANSSPRGKWQCRICEDMFDSQEYVKQHCMSLASHKFHRYSCAHCRKPFHKIETLYRHCQDEHDNEIKIKYFCGLCDLIFNVEEAFLSHYEEHHSIDYVFVSEKTETSIKTEDDFPVIETSNQLTCGCRESYICKVNRKEDYSRCLQIMLDKGKLWFRCSLCSATAQNLTDMNTHIHQVHKEKSDEEEQQYVIKCGTCTKAFHDPESAQQHFHRKHCFLQKPSVAHFGSEKSNLYKFTASASHTERKLKQAINYSKSLDMEKGVENDLSYQNIEEEIVELPDLDYLRTMTHIVFVDFDNWSNFFGHLPGHLNQGTFIWGFQGGNTNWKPPLNCKIYNYLNRIGCFFLHPRCSKRKDAADFAICMHAGRLDEQLPKQIPFTILSGDQGFLELENQFKKTQRPAHILNPHHLEGDMMCALLNSISDTTKECDSDDNMGAKNTSIGEEFISTEDVELEEAIRRSLEEM

Sequences of proteins named here, by UniProt entry; tags and fusion partners are left off.
UniProt Q96A61: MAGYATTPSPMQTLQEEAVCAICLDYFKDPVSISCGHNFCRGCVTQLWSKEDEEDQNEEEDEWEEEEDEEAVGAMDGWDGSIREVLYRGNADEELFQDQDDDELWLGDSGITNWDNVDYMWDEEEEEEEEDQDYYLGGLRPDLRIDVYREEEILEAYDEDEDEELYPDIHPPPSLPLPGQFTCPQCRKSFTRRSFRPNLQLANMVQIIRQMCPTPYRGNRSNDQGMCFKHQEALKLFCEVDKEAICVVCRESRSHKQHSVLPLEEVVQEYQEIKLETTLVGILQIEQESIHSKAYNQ
UniProt Q7Z6Z7: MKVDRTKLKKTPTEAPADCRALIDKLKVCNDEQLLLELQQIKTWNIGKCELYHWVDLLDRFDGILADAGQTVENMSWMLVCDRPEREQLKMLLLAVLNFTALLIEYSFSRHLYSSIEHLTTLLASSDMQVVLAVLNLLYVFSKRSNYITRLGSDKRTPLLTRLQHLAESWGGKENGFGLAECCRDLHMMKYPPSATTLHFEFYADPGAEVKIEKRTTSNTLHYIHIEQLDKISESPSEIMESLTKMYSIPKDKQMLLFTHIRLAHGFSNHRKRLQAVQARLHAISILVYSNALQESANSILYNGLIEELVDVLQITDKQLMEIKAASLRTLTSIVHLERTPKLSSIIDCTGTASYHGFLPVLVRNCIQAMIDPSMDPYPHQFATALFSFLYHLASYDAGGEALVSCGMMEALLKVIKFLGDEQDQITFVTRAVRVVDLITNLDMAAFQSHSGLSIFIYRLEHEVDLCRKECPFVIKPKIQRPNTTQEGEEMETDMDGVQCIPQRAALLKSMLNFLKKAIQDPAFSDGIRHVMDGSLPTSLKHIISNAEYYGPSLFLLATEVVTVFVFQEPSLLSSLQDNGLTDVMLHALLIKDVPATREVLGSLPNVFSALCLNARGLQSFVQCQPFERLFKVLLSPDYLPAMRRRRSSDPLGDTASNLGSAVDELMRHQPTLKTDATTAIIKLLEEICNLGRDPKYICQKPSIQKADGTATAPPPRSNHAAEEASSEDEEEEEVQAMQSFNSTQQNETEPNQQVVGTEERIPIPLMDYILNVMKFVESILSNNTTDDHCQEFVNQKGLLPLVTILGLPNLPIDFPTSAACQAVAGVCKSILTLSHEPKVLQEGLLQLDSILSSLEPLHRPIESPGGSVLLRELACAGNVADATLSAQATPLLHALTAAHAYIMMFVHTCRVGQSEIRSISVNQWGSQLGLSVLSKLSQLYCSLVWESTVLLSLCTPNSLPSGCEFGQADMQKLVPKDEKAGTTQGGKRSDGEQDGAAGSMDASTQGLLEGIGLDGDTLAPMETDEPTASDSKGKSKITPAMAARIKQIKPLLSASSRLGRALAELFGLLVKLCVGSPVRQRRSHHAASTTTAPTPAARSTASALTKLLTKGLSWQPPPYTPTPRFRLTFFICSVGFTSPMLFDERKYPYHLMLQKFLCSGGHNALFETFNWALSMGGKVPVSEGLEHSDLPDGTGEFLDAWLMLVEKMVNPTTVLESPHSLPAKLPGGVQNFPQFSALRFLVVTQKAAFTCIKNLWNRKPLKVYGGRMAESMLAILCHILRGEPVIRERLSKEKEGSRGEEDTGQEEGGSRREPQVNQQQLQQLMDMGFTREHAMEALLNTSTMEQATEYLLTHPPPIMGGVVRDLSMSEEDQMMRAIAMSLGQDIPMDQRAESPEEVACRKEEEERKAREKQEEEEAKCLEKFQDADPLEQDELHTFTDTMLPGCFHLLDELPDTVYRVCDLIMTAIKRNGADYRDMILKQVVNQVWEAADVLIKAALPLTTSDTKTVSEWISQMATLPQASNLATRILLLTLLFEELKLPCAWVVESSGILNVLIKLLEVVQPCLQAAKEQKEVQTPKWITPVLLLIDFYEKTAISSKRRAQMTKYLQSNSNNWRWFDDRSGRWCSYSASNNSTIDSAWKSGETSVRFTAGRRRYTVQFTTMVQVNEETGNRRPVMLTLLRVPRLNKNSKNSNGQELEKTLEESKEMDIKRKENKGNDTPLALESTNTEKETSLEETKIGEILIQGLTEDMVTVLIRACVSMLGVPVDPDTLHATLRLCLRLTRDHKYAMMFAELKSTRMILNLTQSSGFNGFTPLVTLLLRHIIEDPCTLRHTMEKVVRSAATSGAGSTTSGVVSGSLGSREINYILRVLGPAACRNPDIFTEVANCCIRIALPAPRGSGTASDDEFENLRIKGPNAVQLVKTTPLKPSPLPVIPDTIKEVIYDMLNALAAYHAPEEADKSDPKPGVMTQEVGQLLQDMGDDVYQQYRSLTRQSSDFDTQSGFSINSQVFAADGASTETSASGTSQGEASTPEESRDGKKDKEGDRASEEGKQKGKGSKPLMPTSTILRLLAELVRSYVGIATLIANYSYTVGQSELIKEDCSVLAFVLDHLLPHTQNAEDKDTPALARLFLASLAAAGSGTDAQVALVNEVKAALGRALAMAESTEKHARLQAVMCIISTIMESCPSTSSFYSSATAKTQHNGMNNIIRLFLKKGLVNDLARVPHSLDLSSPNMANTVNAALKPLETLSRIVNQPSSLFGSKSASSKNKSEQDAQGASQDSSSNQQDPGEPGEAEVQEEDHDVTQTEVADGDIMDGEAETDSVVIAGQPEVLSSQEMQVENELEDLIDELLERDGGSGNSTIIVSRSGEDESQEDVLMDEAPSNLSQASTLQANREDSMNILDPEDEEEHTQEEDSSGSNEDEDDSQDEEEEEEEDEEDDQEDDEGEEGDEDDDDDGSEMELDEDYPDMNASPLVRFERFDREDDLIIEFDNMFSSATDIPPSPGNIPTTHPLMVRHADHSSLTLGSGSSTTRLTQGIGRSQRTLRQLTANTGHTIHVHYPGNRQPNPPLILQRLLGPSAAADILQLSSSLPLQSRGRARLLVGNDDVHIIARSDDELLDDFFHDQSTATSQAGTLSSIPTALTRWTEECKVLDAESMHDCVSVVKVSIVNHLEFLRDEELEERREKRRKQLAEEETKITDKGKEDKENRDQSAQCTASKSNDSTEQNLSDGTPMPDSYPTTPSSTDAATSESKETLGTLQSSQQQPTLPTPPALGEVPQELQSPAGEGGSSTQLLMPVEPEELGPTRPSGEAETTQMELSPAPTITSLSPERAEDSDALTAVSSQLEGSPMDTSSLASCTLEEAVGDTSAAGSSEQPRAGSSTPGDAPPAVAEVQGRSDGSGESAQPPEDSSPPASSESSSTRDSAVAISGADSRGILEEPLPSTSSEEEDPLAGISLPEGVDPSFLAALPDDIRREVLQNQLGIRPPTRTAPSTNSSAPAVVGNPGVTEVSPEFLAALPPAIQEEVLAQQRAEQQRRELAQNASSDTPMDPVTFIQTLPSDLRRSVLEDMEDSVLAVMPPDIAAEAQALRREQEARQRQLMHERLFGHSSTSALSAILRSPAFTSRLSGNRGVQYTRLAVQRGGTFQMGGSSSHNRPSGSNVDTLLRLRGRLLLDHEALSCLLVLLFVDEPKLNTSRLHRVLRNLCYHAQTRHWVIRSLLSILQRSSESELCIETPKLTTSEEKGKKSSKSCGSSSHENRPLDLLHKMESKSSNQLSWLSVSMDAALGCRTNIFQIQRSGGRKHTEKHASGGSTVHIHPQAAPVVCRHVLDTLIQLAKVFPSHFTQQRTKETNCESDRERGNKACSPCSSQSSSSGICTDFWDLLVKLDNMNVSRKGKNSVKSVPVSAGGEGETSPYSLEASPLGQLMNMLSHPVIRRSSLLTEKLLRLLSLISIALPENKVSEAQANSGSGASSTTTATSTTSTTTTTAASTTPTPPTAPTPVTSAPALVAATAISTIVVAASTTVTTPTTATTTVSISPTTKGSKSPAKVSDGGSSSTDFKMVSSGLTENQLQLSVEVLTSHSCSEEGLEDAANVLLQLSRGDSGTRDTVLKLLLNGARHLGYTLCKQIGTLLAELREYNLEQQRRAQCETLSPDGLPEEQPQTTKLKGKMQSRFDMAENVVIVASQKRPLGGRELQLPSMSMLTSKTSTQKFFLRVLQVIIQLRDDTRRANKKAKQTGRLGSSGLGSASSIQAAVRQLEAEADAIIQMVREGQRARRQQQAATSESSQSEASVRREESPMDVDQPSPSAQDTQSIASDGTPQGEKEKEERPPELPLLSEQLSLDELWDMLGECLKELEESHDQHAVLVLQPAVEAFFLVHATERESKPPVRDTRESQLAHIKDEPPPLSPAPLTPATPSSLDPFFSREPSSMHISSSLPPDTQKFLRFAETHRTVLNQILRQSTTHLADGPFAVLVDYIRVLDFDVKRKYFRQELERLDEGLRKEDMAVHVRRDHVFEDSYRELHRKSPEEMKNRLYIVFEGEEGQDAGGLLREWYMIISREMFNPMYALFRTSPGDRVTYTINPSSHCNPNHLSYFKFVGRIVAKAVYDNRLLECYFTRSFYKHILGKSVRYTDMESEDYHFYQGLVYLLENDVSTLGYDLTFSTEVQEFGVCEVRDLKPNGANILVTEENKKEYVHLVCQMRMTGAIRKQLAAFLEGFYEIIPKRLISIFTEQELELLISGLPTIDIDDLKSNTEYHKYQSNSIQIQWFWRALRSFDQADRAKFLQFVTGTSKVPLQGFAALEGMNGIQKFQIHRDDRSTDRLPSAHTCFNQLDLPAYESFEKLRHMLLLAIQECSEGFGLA
UniProt Q9P0J7: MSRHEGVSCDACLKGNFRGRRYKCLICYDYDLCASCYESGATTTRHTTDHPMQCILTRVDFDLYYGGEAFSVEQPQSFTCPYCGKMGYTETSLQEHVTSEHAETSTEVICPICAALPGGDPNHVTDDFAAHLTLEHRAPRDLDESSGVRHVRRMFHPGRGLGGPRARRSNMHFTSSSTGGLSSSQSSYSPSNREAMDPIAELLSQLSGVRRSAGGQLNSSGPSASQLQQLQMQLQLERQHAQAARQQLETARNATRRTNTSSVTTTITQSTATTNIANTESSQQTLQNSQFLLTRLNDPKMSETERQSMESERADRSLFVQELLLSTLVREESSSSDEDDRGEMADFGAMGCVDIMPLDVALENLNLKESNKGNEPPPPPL

Results are given in words; binding and its absence hold for the method and conditions named. Binding seen in cells or lysates may run through a third protein. Here binding means that the protein was enriched with, or labelled near, the bait; the list need not be complete. For part of these data: No binding means not detected with the bait.

In the first test the target is TurboID-TRIM52 fusion (human) (UniProt Q96A61). Nature of the test: proximity labelling; TurboID-TRIM52 against TurboID-EGFP control in RKO cells, Dox-induced; with 10 µM epoxomicin (Fig. 2a-b) or without proteasome inhibitor (Fig. 5d-e); 500 µM biotin for 15 min; biotinylated proteins enriched on streptavidin beads under denaturing conditions, nLC-MS/MS.
On to “HUWE1 (endogenous) (from UniProt Q7Z6Z7 1-4374) (enzyme)”, for which the binding entry was “binds”.

In the case of “KCMF1 (endogenous) (from UniProt Q9P0J7 1-381)”, the binding result is “no binding”. On the same count and under the same terms, as for “UBR4 (endogenous) (from UniProt Q5T4S7 1-5183) (enzyme)”, the entry is “no binding”; as for “BIRC6 (endogenous) (from UniProt Q9NR09 1-4857) (enzyme)”, “binds”.

The target is the same in another test. The description is as above. The source holds these as a separate data set.
For B1, the binding entry is listed as “binds”. On the same count and under the same terms, under B2 stands “binds”.

These data come from article PMC12022042.
